Test results published in patent US20260132219A1.
No constants are given. Whether binding was seen depends on the method and setting. A result given as binding can be weak or reduced; the word gives no strength.

B1: anti-HER3 clone 10D1_c75 IgG1 (antibody, V domains shown)
VH: DVQLQEWGAGLLKPSETLSLTCAVTGYSITSGYSWHWIRQFPGNGLEWIGSIHYSGGTNYNPTLKSRITISRDTSKNQFSLKLSSVTAADTAVYFCARMTTAPRYPFDYWGQGTLVTVSS
VL: DIVMTQSPSSLSASVGDLVTITCKASQIVGSNVAWYQMKPGKSPKPLIYSASYLYFGVPSRFSGSGSGTDFTLTISSLQPEDVAEYFCQQYSSHPLTFGPGTKVEIKR
B2: anti-HER3 clone 10D1_c76 IgG1 (antibody, V domains shown)
VH: DVQLQEWGAGLLKPSETLSLTCAVTGYSITSGYSWHWIRQFPGNGLEWIGSIHYSGGTNYNPSLKSRITISRDTSKNQFSLKLSSVTAADTAVYFCARMTTAPRYPFDYWGQGTLVTVSS
VL: DIVMTQSPSSLSASGGDRVTITCKASQIVGYNVAWYQQKPGKSPKPLIYSASYLYSDVPSRFSASGSGTDFTLTISSLQPEDVAEYFCQQYSSHPLTFGPGTKVEIKR
B3: anti-HER3 clone 10D1_c77 IgG1 (antibody, V domains shown)
VH: DVQLQEWGAGLLKPSETLSLTCAVTGYSITSGYSWHWIRQFPGNGLEWIGSIHYSGGTNYNPSLKSRITISRDTSKNQFSLKLSSVTAADTAVYFCARMTTAPRYPFDYWGQGTLVTVSS
VL: VIVMTQSPSSLSASVGDRVTITCKASQIVGPNVAWYQQKPGKSPKPLIYSASYGYSDVPSRFSGSGSGTDFTLTISSLQPEDVAEYFCQQYSTHPLTFGPGTKVEIKR
B4: anti-HER3 clone 10D1_11B IgG1 (antibody, V domains shown)
VH: DVQLQEWGAGLLKPSETLSLTCAVYGYSITSGYSWHWIRQPPGKGLEWIGSIHYSGGTNYNPSLKSRVTISRDTSKNQFSLKLSSVTAADTAVYYCARMTTAPRYPFDYWGQGTLVTVSS
VL: DIVMTQSPSSLSASVGDRVTITCKASQIVGSNVAWYQQKPGKSPKPLIYSASYGYSDVPSRFSGSGSGTDFTLTISSLRPEDVATYYCQQYSSHPLTFGPGTKVEIKR
B5: anti-HER3 clone 10D1_c85o1 IgG1 (antibody, V domains shown)
VH: DVQLQEWGAGLLKPSETLSLTCAVTGYSITSGYSWHWIRQFPGKGLEWIGSIRYSGGTNYNPSLKSRITISRDTSKNQFSLKLGSVTAADTAVYFCARETTAPRYPFDYWGQGTLVTVSS
VL: DIVMTQSPSSLSASVGDRVTITCKASQIVGSNVAWYQQKPGKSPKPLIYSARYQYSGVPFRFSGSGSGTDFTLTISSLQPEDVATYYCQQYSSHPLTFGPGTKVEIKR
B6: anti-HER3 clone 10D1_c85o2 IgG1 (antibody, V domains shown)
VH: DVQLQEWGAGLLKPSETLSLTCAVTGYSITSGYSWHWIRQFPGKGLEWIGSIRYSGGTNYNPSLKSRITISRDTSKNQFSLKLGSVTAADTAVYFCARGTTAPRYPFDYWGQGTLVTVSS
VL: DIVMTQSPSSLSASVGDRVTITCKASQIVGSNVAWYQQKPGKSPKPLIYSARYQYSGVPFRFSGSGSGTDFTLTISSLQPEDVATYYCQQYSSHPLTFGPGTKVEIKR
B7: anti-HER3 clone 10D1_c87 IgG1 (antibody, V domains shown)
VH: DVQLQEWGAGLLKPSETLSLTCAVTGYSITSGYSWHWIRQFPGNGLEWIGSIHYSGGTNYNPSLKSRITISRDTSKNQFSLRLSSVTAADTAVYFCARMTTAPRYPFDYWGQGTLVTVSS
VL: DIVMTQSPSSLSASVGDRVTITCKASQIVGSNVAWYQQMPGKSPEPLIYSASYLYSDVPSRFSGSGSGTDFTMTISSLQPEDVATYYCQQYSSHPLTFGPGTKVEIKR
B8: 10D1F.FcA (anti-HER3 clone 10D1_c89 IgG1) (antibody, V domains shown)
VH: QVQLQESGPGLVKPSQTLSLTCTVSGYSITSGYSWHWIRQHPGKGLEWIGSIRYSGGTDYNPSLKSLVTISADTSKNQFSLKLSSVTAADTAVYYCARMTTAPWYPFDYWGQGTTVTVSS
VL: DIQMTQSPSSVSASVGDRVTITCKASQIVGSNVAWYQQKPGKAPEPLIYSASYLYSGVPSRFSGSGSGTDFTLTISSLQPEDFATYYCQQYSSHPLTFGQGTKLEIKR
B9: anti-HER3 clone 10D1_c90 IgG1 (antibody, V domains shown)
VH: QVQLQESGPGLVKPSQTLFLTCTVSGYSITSGYSWHWIRQHPGKGLEWIGSIRYSGGTDYNPSLKSLVTISVDTSKNQFSLKLSSVTAADTAVYYCARMTTAPWYPFDYWGQGTTVTVSS
VL: DIQMTQSPSSVSASVGDRVTFTCKASQIVGSNVAWYQQKPGKAPEPLIYSASYLYSSVPSRFSGSGSGTEFTMTISSLEPEDFATYYCQQYTTHPLTFGPGTKVEIKR
B10: anti-HER3 clone 10D1_c91 IgG1 (antibody, V domains shown)
VH: QVQLQESGPGLVKPSQTLSLTCTVSGYYITSGYSWHWIRQHPGKGLEWIGSIRYSGGTDYNPSLKSLATISADTSKNQFSLKLSSVTAADTAVYYCARMTTAPWYPFDYWGQGTAVTVSS
VL: DIQMTQSPSSVSASVGDRVTITCKASQIVGSNVAWYQQKPGKAPMPLIYSASYGYSGVPSRFSGSGSGTDFTLTISSLQPEDFATYYCQQYSSHPLTFGQGTKLEIKR
B11: anti-HER3 clone 10D1_c93 IgG1 (antibody, V domains shown)
VH: DVQLQEWGAGLLKPSETLSLTCAVTGYSITSGYSWHWIRQFPGNGLEWIGSIHYSGGTNYNPSLKSRITISRDTSKNQFSLRLSSVTAADTAVYFCARMTTAPRYPFDYWGQGTLVTVSS
VL: DIVMTQSPSSLSASVGDRVTITCKASQIVGSNVAWYQQKPGKSPKPLIYSASYLYSDVPSRFSGSGSGTDFTMTISSLQPEDVATYYCQQYSSHPLTFGPGTKVEIKR

The binders below were run against human HER3 polypeptide (Sino Biological Inc.) (human) (assay: ELISA, human HER3 polypeptide coated).

binding, binds:
B1, B2, B3, B4, B5, B6, B7, B8, B9, B10, B11

What follows are binders tested against human HER3 polypeptide (Sino Biological Inc.) (human) (assay: ELISA, target polypeptide coated).

binding, binds:
B8
